Measured values: the supplement of paper PMC12067093, “Discovery and optimisation of a covalent ligand for TRIM25 and its application to targeted protein ubiquitination” (Chemical Science, 2025)
The other results are listed elsewhere or left out.

Amino acid sequences for entries named in this document (tags omitted). A change or cut given only in a name is not applied to a line headed by its entry.
UniProt P07814: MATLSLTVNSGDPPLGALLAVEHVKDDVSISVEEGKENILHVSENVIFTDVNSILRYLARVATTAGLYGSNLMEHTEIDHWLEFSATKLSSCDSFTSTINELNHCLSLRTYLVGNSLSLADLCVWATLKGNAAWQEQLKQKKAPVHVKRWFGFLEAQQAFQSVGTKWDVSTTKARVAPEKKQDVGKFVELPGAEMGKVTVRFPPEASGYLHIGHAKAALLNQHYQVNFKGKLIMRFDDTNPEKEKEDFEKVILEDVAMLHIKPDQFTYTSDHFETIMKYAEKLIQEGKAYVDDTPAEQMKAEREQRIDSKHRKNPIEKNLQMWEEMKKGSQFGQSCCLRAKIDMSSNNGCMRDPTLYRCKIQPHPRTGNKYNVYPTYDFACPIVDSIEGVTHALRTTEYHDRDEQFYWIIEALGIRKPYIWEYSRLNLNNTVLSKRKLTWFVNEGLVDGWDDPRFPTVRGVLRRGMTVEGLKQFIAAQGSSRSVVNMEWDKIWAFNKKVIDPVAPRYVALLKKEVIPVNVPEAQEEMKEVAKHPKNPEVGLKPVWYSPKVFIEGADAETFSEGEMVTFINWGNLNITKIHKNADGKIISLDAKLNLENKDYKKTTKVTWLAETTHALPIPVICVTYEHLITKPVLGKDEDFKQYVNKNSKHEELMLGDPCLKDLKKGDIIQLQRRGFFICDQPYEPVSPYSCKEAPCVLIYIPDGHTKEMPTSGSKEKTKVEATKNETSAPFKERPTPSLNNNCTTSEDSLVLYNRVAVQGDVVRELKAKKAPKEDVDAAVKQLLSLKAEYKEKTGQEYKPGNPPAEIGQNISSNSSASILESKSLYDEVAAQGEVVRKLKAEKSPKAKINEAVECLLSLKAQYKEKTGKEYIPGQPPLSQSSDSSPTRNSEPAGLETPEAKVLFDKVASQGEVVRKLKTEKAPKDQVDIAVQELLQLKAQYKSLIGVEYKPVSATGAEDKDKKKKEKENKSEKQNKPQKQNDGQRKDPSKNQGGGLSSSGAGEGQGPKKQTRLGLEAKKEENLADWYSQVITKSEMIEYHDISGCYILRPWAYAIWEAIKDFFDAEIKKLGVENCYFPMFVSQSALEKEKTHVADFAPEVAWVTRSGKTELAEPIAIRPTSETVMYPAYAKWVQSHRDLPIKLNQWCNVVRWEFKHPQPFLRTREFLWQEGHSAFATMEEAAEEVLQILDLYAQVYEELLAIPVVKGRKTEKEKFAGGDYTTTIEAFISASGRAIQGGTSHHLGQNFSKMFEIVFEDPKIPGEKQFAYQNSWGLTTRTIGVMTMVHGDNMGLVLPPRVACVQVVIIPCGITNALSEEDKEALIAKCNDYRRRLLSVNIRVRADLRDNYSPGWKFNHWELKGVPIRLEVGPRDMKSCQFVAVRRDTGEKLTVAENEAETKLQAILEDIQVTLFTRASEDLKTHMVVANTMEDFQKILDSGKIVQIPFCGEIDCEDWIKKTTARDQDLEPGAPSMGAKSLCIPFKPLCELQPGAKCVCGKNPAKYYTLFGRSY
UniProt O15371, whole entry, looked up: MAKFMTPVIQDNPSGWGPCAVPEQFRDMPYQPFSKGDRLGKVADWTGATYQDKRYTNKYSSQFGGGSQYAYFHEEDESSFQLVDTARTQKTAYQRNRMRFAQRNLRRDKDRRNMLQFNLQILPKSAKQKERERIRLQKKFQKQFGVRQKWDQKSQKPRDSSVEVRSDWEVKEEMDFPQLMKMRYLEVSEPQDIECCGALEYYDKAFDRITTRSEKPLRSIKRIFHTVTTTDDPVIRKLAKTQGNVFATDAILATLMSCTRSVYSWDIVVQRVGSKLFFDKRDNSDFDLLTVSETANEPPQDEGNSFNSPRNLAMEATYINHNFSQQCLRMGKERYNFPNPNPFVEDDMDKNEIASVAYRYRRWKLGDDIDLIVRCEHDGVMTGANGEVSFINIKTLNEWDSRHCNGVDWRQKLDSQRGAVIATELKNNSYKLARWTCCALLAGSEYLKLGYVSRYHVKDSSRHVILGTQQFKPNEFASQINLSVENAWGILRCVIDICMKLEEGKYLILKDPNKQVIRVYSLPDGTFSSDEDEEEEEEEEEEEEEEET
UniProt Q15723: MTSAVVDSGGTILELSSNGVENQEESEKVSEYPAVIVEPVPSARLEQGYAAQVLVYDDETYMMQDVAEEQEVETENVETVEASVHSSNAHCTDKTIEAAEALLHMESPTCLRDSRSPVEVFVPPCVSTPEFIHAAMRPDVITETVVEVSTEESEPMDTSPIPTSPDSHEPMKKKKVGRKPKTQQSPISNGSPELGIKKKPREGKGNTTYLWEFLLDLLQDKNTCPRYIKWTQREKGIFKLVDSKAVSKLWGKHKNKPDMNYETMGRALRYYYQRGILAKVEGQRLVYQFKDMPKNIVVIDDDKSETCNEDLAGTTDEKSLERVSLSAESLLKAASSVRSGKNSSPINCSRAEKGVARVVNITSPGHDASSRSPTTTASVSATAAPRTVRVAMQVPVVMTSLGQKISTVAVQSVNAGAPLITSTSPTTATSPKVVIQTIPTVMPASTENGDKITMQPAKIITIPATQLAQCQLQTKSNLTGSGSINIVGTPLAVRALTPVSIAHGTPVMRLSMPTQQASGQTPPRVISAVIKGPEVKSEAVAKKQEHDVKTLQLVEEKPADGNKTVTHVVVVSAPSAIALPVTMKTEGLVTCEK
UniProt Q09472, whole entry, looked up: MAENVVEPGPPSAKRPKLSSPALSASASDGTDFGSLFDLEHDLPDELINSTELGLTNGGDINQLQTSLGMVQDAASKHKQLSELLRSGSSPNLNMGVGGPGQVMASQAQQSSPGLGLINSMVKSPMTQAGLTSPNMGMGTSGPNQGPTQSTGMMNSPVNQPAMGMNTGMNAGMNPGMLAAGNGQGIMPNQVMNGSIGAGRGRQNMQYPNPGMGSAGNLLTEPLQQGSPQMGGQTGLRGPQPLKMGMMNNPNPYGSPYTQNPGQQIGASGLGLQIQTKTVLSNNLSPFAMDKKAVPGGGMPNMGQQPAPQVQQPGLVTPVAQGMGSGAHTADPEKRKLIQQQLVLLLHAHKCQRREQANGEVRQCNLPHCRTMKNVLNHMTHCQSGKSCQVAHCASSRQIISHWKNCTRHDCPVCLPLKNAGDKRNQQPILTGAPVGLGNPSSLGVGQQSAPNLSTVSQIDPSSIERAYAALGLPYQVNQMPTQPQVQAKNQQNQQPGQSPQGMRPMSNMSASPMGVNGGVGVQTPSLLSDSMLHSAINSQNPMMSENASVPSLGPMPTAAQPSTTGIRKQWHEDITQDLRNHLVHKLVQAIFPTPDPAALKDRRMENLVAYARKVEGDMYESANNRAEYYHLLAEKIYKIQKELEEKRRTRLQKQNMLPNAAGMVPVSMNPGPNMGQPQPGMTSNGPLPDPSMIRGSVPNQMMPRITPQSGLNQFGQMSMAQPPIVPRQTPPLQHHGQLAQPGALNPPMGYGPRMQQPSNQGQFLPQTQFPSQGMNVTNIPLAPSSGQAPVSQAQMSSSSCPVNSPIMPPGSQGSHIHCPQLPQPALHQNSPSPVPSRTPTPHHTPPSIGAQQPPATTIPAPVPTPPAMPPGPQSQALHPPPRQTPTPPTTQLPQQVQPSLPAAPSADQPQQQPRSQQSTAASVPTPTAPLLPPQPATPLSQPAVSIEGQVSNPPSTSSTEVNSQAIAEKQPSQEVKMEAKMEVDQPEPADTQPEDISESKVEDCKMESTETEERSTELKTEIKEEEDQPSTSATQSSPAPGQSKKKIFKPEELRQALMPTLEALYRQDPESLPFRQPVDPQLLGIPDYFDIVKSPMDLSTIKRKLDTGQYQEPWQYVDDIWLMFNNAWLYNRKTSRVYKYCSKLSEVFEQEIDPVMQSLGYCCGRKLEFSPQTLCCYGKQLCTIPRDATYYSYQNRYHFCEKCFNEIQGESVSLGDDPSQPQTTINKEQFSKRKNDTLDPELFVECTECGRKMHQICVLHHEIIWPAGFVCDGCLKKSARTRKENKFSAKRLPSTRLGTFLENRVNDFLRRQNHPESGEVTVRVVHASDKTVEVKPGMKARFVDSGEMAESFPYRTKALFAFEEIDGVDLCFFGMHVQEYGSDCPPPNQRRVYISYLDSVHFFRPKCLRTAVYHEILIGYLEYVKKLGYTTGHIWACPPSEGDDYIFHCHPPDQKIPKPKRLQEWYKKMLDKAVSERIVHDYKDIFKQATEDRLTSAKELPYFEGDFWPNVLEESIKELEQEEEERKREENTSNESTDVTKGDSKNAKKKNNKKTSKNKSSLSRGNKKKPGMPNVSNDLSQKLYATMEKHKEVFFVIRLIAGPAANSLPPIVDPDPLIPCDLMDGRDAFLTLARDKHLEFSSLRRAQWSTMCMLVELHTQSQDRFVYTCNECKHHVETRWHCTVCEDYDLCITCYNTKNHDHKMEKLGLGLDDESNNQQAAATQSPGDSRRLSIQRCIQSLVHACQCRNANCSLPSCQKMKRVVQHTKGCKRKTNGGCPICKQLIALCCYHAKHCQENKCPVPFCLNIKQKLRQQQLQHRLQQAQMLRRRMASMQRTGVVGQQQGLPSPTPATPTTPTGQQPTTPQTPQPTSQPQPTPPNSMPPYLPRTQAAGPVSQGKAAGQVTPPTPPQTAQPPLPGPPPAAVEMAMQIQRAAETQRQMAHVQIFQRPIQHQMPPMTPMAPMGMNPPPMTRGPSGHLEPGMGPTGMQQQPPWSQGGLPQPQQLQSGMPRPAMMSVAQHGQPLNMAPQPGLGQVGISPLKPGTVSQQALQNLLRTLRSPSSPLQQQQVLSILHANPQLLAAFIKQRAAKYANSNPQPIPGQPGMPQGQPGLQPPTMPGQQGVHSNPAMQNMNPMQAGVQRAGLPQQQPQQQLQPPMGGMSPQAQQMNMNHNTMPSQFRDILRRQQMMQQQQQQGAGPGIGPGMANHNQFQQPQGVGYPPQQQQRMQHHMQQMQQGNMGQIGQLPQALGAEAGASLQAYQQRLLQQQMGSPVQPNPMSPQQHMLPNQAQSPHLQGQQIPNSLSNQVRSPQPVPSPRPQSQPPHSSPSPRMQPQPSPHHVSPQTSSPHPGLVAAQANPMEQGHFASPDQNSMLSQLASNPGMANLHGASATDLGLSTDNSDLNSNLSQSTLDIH
UniProt Q6IA86: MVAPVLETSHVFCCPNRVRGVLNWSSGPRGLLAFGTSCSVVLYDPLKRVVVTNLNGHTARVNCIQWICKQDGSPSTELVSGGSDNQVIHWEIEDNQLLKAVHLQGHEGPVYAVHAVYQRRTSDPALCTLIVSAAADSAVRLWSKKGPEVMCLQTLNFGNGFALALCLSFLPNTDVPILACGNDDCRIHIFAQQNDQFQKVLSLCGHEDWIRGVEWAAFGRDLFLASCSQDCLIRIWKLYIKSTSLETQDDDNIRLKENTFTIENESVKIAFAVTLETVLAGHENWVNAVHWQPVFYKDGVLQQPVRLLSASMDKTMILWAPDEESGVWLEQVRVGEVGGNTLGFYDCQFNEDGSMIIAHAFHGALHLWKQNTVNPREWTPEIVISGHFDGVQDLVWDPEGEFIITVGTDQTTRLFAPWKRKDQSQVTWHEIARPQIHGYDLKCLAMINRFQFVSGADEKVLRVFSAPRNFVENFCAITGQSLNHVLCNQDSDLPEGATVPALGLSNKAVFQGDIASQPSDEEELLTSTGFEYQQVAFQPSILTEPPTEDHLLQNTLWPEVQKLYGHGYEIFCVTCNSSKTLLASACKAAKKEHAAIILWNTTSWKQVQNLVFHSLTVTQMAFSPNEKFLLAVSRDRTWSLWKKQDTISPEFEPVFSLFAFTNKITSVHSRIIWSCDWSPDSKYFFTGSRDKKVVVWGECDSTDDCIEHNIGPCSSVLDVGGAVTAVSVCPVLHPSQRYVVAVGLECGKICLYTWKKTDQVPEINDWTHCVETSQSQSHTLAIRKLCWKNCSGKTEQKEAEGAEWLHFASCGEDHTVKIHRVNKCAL
UniProt P55199: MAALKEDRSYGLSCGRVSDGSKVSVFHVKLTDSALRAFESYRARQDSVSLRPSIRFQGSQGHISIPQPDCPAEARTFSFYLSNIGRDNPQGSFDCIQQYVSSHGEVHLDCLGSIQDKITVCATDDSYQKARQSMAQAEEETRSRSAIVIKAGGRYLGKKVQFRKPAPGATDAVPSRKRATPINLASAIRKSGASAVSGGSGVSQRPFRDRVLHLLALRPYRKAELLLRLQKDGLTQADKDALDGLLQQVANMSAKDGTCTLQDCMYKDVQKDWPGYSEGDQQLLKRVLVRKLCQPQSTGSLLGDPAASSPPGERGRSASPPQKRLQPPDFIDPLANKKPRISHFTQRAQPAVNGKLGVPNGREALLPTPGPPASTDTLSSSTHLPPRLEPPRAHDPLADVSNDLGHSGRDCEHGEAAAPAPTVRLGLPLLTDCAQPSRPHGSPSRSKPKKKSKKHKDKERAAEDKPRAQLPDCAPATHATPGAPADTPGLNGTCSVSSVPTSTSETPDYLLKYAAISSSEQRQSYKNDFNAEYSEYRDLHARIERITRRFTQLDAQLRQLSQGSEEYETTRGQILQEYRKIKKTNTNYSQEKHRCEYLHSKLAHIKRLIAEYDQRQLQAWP

Compound: Cc1cc(ccc1-c1ccccc1)C(=O)N1CCCN(CC1)C(=O)CCl [compound 10]
Assay: probe-labelled cysteine peptide fold change vs DMSO (competition) (log2 fold change); higher = less target engagement (more negative = stronger competition)
Conditions: THP-1, incubation time: 4 h
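Further: competitive profiling in live THP-1 cells: cysteine peptides tagged with an iodoacetamide desthiobiotin (IA-DTB) probe, intensity after compound treatment relative to DMSO-treated cells.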

| Target | probe-labelled cysteine peptide fold change (10 µM) | probe-labelled cysteine peptide fold change (50 µM) |
| --- | --- | --- |
| ERAP1_Q9NZ08_193_MAFPCFDEPAFK (UniProt Q9NZ08) | -0.111 | -0.0504 |
| EPRS_P07814_350_IDMSSNNGCMRDPTLYR (UniProt P07814) | -0.0274 | -0.367 |
| EIF4H_Q15056_85_GFCYVEFDEVDSLK (UniProt Q15056) | 0.155 | -0.0372 |
| EIF3D_O15371_19_FMTPVIQDNPSGWGPCAVPEQFR (UniProt O15371) | -0.15 | -0.361 |
| EPS15_P42566_586_VCSELDNNR (UniProt P42566) | -0.0714 | -0.222 |
| ELMO2_Q96JJ3_550_LCEGSSFR (UniProt Q96JJ3) | -0.158 | -0.0439 |
| ENDOV_Q8N8Q3_140_GFGVACHLGVLTDLPCVGVAK (UniProt Q8N8Q3) | 0.0963 | -0.0593 |
| ELF2_Q15723_591_TEGLVTCEK (UniProt Q15723) | -0.386 | -0.43 |
| EPRS_P07814_337_GSQFGQSCCLR (UniProt P07814) | 0.0401 | -0.0341 |
| EP300_Q09472_1176+1177_KLEFSPQTLCCYGK (UniProt Q09472) | -0.315 | -0.974 |
| ELP2_Q6IA86_13_VAPVLETSHVFCCPNR (UniProt Q6IA86) | -0.124 | -0.24 |
| ELF2_Q15723_110_TIEAAEALLHMESPTCLR (UniProt Q15723) | -0.353 | -0.495 |
| EP300_Q09472_1621_LIAGPAANSLPPIVDPDPLIPCDLMDGR (UniProt Q09472) | 0.815 | 0.109 |
| EIF4G3_O43432_913_MLTEAIMHDCVVK (UniProt O43432) | -0.0124 | -0.169 |
| EIF5B_O60841_853_RLAHCEELR (UniProt O60841) | 0.222 | 0.0785 |
| EPC1_Q9H2F5_22_CEDLPDLHEYASINR (UniProt Q9H2F5) | -0.204 | -0.164 |
| ELL_P55199_411_DCEHGEAAAPAPTVR (UniProt P55199) | 0.00359 | 0.847 |
| ELP1_O95163_744_EAFECMR (UniProt O95163) | -0.575 | 0.271 |
| EPRS_P07814_123_TYLVGNSLSLADLCVWATLK (UniProt P07814) | 0.212 | -0.0514 |
| EIF3D_O15371_258_TQGNVFATDAILATLMSCTR (UniProt O15371) | 0.227 | 0.203 |
| EIF3M_Q7L2H7_175_LLYEALVDCKK (UniProt Q7L2H7) | 0.0635 | 0.338 |

Complete entries as entered above:
ELL_P55199_411_DCEHGEAAAPAPTVR (UniProt P55199) reads probe-labelled cysteine peptide fold change (10 µM): 0.00359; probe-labelled cysteine peptide fold change (50 µM): 0.847
ELP2_Q6IA86_13_VAPVLETSHVFCCPNR (UniProt Q6IA86) reads probe-labelled cysteine peptide fold change (10 µM): -0.124; probe-labelled cysteine peptide fold change (50 µM): -0.24
